The list shows a part of the results. Further columns of the screen follow, without active or inactive calls. The list favours compounds with an active or inconclusive main result. Potencies come from curve fits of mixed quality, noted in brackets.
Assay: qHTS Assay for Lipid Storage Modulators in Drosophila S3 Cells;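 for cell number change: cells counted by Cell Tracker Red CMTPX staining in the red channel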
Settings: BODIPY lipid droplet fluorescence, 18-24 h; for cell number change: measured here: cell count max response, cells fed with added oleic acid
In short: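 Drosophila S3 cells loaded with oleic acid (400 uM, as added) and compounds at several concentrations; lipid droplets imaged by 488-nm laser-scanning cytometry, 500–530 nm intensity and object ratio to cell channel. Percent activity normalized to 20 uM Triacsin C.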

[1] = measured here: cell number channel AC50, cells fed with added oleic acid
[2] = measured here: lipid fluorescence (Fed channel) AC50, cells fed with added oleic acid

Compound	cell number change [%]	AC50 [1]	AC50 [2]
COc1ccc(CCN(C)C(=O)/C=C/c2c(Cl)nc3ccccn23)cc1OC	-7.3	0.731 µM [rising, single point]	–
Cc1ccc2c(c1)-c1c(ssc1=S)C(C)(C)N2C(=O)CSc1nncn1C	2.59	–	–
Cc1ccc(-n2nc(-c3cccnc3)cc2C(=O)N2CCOCC2)c(C)c1	38.8	8.2 µM [rising, partial curve, poor fit]	–
CN(CCOc1ccccc1)C(=O)c1ccc(OC2CCN(C(=O)C3CC3)CC2)cc1	6.99	–	–
COc1cccc(CN2CC(C(=O)N(C)Cc3nc4ccc(F)cc4[nH]3)CCC2=O)c1 (centres undefined)	-1.33	–	0.206 µM [rising, partial curve, poor fit]
CCOc1ccc(-c2c(C(=O)N/N=C(\C)c3ccco3)nnn2-c2nonc2N)cc1	5.5	–	6.51 µM [rising, partial curve, poor fit]
O=C(CN1C(=O)NC2(CCCCCC2)C1=O)N1CCCCC1	-44.8	0.517 µM [falling, full curve]	–
O=C(NNC(=O)C1CC(c2cccnc2)=NO1)Nc1ccccc1F (centres undefined)	8.5	–	0.291 µM [rising, partial curve, poor fit]
CCOC(=O)c1c(S(=O)(=O)NCC(=O)Nc2ccc(C)cc2)c(C)n(C)c1C	6.13	3.26 µM [rising, single point]	5.17 µM [rising, single point]
CCOCC(=O)Nc1ccc2c(c1)OCCO2	-55.1	29.1 µM [falling, single point]	5.17 µM [falling, single point]
O=C(CSCc1ccco1)c1ccc(Cl)s1	-5.33	–	29.1 µM [falling, single point]
C=CCOc1ccc2c(c1)c(S(=O)(=O)c1ccc(C)cc1)cn2COC	-27.2	–	20.6 µM [rising, single point]
CC1CC(C)CN(c2nc(NCc3ccco3)nc(N)c2[N+](=O)[O-])C1 (centres undefined)	-35.1	14.6 µM [falling, partial curve, poor fit]	32.6 µM [falling, partial curve, poor fit]
CC1CC1C(=O)OCC(=O)Nc1ncc(Cl)cc1Cl (centres undefined)	10.4	–	–
CC(C)CC1c2[nH]c3ccccc3c2CCN1C(=O)c1cnccn1 (centres undefined)	-0.726	–	6.51 µM [rising, partial curve]
CCOC(=O)CSc1ncc(OC)c(=O)[nH]1	-61.2	29.1 µM [falling, single point]	16.4 µM [falling, single point]
CCCc1[nH]c2ccc(C(=O)OC)cc2c1CCC	2.59	–	0.58 µM [rising, single point]
Cc1cccc(NC(=O)CSc2n[nH]c(-c3cccnc3)n2)c1	12.4	–	1.46 µM [rising, partial curve]
Cc1ccc(C(=O)Oc2cccc(NC(=O)c3cccs3)c2)cc1S(=O)(=O)N1CCOCC1	–	6.51 µM [falling, single point]	–
Cc1cc(C(F)(F)F)n2nc(-c3cnn(C)c3C(F)(F)F)c(Br)c2n1	121	29.1 µM [rising, partial curve]	–
CCn1c(C)c(C)c2cc(C(=O)NCCCN3CCCC3)ccc21	-23.2	–	–
Cc1[nH]c2ccccc2c1/C=C/c1cc[n+](C)cc1	-63.8	29.1 µM [falling, single point]	29.1 µM [falling, single point]
Cc1cc(C(=O)NC2CCCc3c2cnn3-c2cccc(C)c2C)no1 (centres undefined)	-24.3	0.92 µM [falling, full curve, poor fit]	11.6 µM [falling, single point]
O=c1c2ccccc2nnn1CSc1nnc(-c2cccs2)n1Cc1ccccc1	2.64	–	23.1 µM [rising, single point]
CCOc1ccc(C2/C(=C(\O)c3ccc4c(c3)OCCO4)C(=O)C(=O)N2CCCN2CCOCC2)cc1 (centres undefined)	14.9	–	29.1 µM [rising, single point]
CC(=O)Nc1ccc(S(=O)(=O)NCC(=O)N2CCN(S(=O)(=O)c3cccs3)CC2)cc1	-4.26	–	–
COc1ccc(Cl)cc1NC(=O)c1cnc2n(c1=O)CCS2	82.7	11.6 µM [rising, partial curve]	8.2 µM [rising, partial curve]
O=S1(=O)CCN(Cc2cccc(C(F)(F)F)c2)CC1	-3.87	0.58 µM [falling, single point]	–
Cc1ccc(C)c(NC(=O)c2ccc3nccnc3c2)c1	-17.9	–	29.1 µM [rising, single point]

2 consecutive compounds out of the list so far, quoted:
Compound	cell number change [%]	AC50 [1]	AC50 [2]
COc1cccc(CN2CC(C(=O)N(C)Cc3nc4ccc(F)cc4[nH]3)CCC2=O)c1 (centres undefined)	-1.33	–	0.206 µM [rising, partial curve, poor fit]
CCOc1ccc(-c2c(C(=O)N/N=C(\C)c3ccco3)nnn2-c2nonc2N)cc1	5.5	–	6.51 µM [rising, partial curve, poor fit]
